# For at least one compound, name, drawing or mass did not settle the structure.
# By UniProt entry, the sequences of proteins in these tests, tags left out. Residues count along the entry.
# UniProt P43220, 24-463: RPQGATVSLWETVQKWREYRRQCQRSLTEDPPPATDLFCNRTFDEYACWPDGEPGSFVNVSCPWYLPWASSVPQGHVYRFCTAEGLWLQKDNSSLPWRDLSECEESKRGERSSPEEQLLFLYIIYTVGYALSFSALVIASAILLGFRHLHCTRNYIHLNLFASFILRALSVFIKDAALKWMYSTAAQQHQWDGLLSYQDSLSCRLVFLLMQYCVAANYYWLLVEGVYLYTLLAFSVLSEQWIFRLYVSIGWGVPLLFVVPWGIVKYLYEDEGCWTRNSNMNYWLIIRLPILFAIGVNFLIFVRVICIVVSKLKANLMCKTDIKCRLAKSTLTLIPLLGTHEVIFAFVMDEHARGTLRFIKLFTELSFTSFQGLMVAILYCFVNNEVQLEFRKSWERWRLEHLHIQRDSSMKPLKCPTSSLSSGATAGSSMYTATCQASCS
# Assays:
# human GLP-1 receptor [1] = target: T1, human GLP-1 receptor (Homo sapiens, UniProt P43220); experiment: In vitro potency (AlphaScreen cAMP; membranes); format: biochemical; settings: membranes from BHK467-12A (tk-ts13) cells expressing the human GLP-1 receptor; cAMP formation
# T1 construct: expressed in transfected cells; host or cells: BHK467-12A (tk-ts13), baby hamster kidney; purified plasma membranes
# human GLP-1 receptor [2] = target: T1, human GLP-1 receptor; experiment: In vitro potency (CRE luciferase; whole cells); format: cell-based; settings: BHK cells expressing human GLP-1 receptor and CRE luciferase; low albumin
smiles,measurement,setting,value
"CC[C@H](C)[C@H](NC(=O)[C@H](Cc1ccccc1)NC(=O)[C@H](CCC(=O)O)NC(=O)[C@H](CCCNC(=N)N)NC(=O)[C@@H](NC(=O)[C@H](C)NC(=O)[C@H](CCC(N)=O)NC(=O)[C@H](CCC(=O)O)NC(=O)[C@H](CCC(=O)O)NC(=O)[C@H](CC(C)C)NC(=O)[C@H](Cc1ccc(O)cc1)NC(=O)[C@H](CCCCNC(=O)COCCOCCNC(=O)COCCOCCNC(=O)CC[C@H](NC(=O)CCCCCCCCCCCCC(=O)O)C(=O)O)NC(=O)[C@H](CO)NC(=O)[C@@H](NC(=O)[C@H](CC(=O)O)NC(=O)[C@H](CO)NC(=O)[C@@H](NC(=O)[C@H](Cc1ccccc1)NC(=O)[C@@H](NC(=O)CNC(=O)[C@H](CCC(=O)O)NC(=O)C(C)(C)NC(=O)[C@@H](N)Cc1c[nH]cn1)[C@@H](C)O)[C@@H](C)O)C(C)C)C(C)C)C(=O)N[C@@H](C)C(=O)N[C@@H](CCCCNC(=O)COCCOCCNC(=O)COCCOCCNC(=O)CC[C@H](NC(=O)CCCCCCCCCCCCC(=O)O)C(=O)O)C(=O)N[C@@H](CC(C)C)C(=O)N[C@H](C(=O)N[C@@H](CCCNC(=N)N)C(=O)NCC(=O)N[C@@H](CCCNC(=N)N)C(=O)NCC(=O)O)C(C)C [Example 6a, reference compound]",EC50,human GLP-1 receptor [1],0.062 nM
same,EC50,human GLP-1 receptor [2],0.062 nM

# — patent US10308700B2, “GLP-1 derivatives” (Novo Nordisk A/S, priority 2011, dated 2019)
